Measured values taken from article PMC12587306.
These are yes or no findings as the source states them, for the method shown. Binding seen in cells or lysates may run through a third protein. Some binding calls cover weakened binding; strength is not graded here.

Chains of the proteins cited; added tags and fusions are not shown. Residues count along the entry.
UniProt P08581, residues 25-1390: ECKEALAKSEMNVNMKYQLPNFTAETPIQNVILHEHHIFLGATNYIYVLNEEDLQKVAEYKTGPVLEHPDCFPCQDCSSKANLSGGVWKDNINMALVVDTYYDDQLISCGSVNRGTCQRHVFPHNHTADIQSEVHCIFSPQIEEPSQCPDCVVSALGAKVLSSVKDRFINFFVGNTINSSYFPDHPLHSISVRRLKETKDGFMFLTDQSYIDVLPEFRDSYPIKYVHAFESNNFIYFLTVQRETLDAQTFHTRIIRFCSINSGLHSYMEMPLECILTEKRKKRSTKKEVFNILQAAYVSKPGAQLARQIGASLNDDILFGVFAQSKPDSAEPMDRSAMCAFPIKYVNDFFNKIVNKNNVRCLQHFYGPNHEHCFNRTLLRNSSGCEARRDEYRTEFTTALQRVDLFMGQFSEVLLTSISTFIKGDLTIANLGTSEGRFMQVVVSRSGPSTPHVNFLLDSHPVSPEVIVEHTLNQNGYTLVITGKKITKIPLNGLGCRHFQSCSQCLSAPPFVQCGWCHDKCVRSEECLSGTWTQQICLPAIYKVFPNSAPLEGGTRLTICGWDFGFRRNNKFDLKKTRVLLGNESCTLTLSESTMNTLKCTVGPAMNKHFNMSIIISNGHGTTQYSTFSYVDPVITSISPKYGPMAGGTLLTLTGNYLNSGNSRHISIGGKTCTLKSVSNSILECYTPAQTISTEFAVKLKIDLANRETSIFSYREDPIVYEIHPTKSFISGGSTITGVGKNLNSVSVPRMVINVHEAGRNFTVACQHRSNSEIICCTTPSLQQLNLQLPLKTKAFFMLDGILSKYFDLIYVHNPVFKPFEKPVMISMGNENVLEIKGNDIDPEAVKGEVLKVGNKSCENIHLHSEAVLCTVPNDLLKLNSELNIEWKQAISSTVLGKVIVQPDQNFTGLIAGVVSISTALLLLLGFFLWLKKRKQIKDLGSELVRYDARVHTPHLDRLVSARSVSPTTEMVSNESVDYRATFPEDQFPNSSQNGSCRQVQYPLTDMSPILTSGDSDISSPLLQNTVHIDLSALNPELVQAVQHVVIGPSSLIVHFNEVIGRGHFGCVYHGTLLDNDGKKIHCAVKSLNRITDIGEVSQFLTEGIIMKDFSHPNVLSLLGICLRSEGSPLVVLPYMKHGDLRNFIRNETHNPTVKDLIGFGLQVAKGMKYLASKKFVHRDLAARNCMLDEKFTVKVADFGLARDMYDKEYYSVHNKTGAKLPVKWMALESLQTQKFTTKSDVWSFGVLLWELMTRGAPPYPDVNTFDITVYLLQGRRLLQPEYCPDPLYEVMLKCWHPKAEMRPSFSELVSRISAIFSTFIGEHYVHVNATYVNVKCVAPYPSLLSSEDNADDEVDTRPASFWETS
UniProt O75131: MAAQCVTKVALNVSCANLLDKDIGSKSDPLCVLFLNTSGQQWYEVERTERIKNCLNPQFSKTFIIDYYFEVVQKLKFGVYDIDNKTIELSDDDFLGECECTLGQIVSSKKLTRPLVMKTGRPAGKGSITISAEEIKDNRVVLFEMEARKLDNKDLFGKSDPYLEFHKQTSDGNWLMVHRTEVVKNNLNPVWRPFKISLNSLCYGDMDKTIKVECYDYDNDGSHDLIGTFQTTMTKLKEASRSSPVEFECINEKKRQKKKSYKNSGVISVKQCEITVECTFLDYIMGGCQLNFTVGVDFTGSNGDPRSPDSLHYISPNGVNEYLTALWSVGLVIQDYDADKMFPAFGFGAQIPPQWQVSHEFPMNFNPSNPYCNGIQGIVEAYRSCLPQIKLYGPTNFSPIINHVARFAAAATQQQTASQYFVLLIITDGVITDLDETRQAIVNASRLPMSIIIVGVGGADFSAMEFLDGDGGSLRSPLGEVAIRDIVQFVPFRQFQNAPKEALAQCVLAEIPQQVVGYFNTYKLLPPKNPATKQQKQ

Assays:
[1] = target: c‐MET receptor tyrosine kinase, endogenous (human (endogenous in A549)) (UniProt P08581); experiment: co-IP; endogenous proteins; A549 lysates immunoprecipitated with anti-CPNE3 or anti-MET antibodies (control IgG), followed by immunoblotting
[2] = target: Calcium‐dependent phospholipid‐binding protein‐III (CPNE3), endogenous (human (endogenous in A549 and H1299)) (UniProt O75131); experiment: as above

## Calcium‐dependent phospholipid‐binding protein‐III (CPNE3), endogenous (from UniProt O75131 1-537)
[1]
  binding: binds

## c‐MET receptor tyrosine kinase, endogenous (from UniProt P08581 25-1390)
[2]
  binding: binds
